Assay: Evaluation of the compatibility of the preservatives in view of other aspects (odour, aspect, potential irritant or allergenic)

Substance	Comments/other aspects (preservative alone at 5% in emulsion)	Comments/other aspects (preservative alone at 0.5% in emulsion)
Copper digluconate	Unstable cream	–
Zinc undecylenate	–	Thick cream,
